# Test results published in PubChem BioAssay AID182 (DTP/NCI, 2004).
# The list does not hold the whole screen: it gathers tests that were run many times, whatever their T/C, doses with no T/C, and many T/C values between a quarter and a half above the control. Further doses and runs are listed elsewhere. T/C gives the treated animals as a percentage of the vehicle group. Some entries give survivors of the animals treated and no T/C: the source files T/C as zero there, which appears to mark a toxic dose or a test without result, not a measured value. Some survivor counts are full or nearly so, which does not show that the dose was tolerated: survival well below the control is almost never listed, so the zero probably covers shortened survival too. Survivors were counted at the toxicity check, usually on the fifth day, unless a day is given; later deaths do not show. Schedule codes are those of the source, taken here to give the interval after Q, in days (D) or hours (H), and the number of doses after X. For survival time, this PubChem deposit counts one and a half times the control or more as active, and values a quarter to a half above the control carry no call in these data; other NCI protocols may use other cut-offs. Some T/C values are followed by the survivors on the day toxicity was checked, most often the fifth; where none is given, no animal had died by that day. Some entries were tested several times; the results are listed from low to high. Signs of the kind (2×) say how often a value occurs here.
# Tested on: BDF1 mice, P388/ADR leukemia ip, median survival T/C
# Assay: NCI In Vivo Anticancer Drug Screen. Data for tumor model P388 Leukemia resistant to Adriamycin; NSC 123127, Developed at Scr 06 and 41 (intraperitoneal) in B6D2F1 (BDF1) mice
# Details: T/C endpoint: median survival time, higher T/C = longer survival
# Procedure: The antitumor activity of compounds was measured in mice bearing transplantable tumors. Survival or tumor size were measured and the results are expressed as the measurement made in the treated group (T) divided by the measurement made in the vehicle treated control group (C). The tumor model used in this assay is P388 Leukemia resistant to Adriamycin; NSC 123127, Developed at Scr 06 and 41 (intraperitoneal) in B6D2F1 (BDF1) mice
# [1] = dose: 4.0 mg/kg/injection, schedule: Q04DX003 (ip), vehicle: water
# [2] = dose: 8.0 mg/kg/injection, schedule: Q04DX003 (ip), vehicle: saline
# [3] = dose: 3.6 mg/kg/injection, schedule: Q04DX003 (ip), vehicle: water
# [4] = dose: 6.0 mg/kg/injection, schedule: Q04DX003 (ip), vehicle: water
structure (smiles),measurement,setting,value
O=P1(N(CCCl)CCCl)NCCCO1 (configuration not stated),survivor count,"dose: 300.0 mg/kg/injection, schedule: Q01DX001 (ip), vehicle: saline",8 of 8
same,survivor count,"dose: 500.0 mg/kg/injection, schedule: Q01DX001 (ip), vehicle: saline",0 of 8
CC(=O)c1cccc(NC2C(N)C(NC(=O)N(C)C)(C(C)O)C(C)(O)C2(O)COC(=O)c2c(C)cccc2O)c1 (configuration not stated),survivor count,"dose: 10.8 mg/kg/injection, schedule: Q04DX003 (ip), vehicle: alkali diluted with saline",4 of 8
same,survivor count,"dose: 18.0 mg/kg/injection, schedule: Q04DX003 (ip), vehicle: alkali diluted with saline",0 of 8
same,survivor count,"dose: 24.0 mg/kg/injection, schedule: Q04DX003 (ip), vehicle: alkali diluted with saline",6 of 8
same,survivor count,"dose: 30.0 mg/kg/injection, schedule: Q04DX003 (ip), vehicle: alkali diluted with saline",0 of 8
COc1cccc2c1C(=O)c1c(O)c3c(c(O)c1C2=O)C[C@@](O)(C(=O)CO)C[C@@H]3OC1CC(N)C(O)C(C)O1 (some centres not stated),T/C,"dose: 1.3 mg/kg/injection, schedule: Q01DX004 (ip), vehicle: saline with Tween-80",127 % of control
same,T/C,"dose: 1.44 mg/kg/injection, schedule: Q04DX003 (ip), vehicle: water","102 (4×), 107, 111, 125 % of control"
same,T/C,"dose: 1.73 mg/kg/injection, schedule: Q04DX003 (ip), vehicle: saline","98, 108, 115, 116 (2×), 120 (2×), 121 % of control"
same,T/C,"dose: 2.16 mg/kg/injection, schedule: Q01DX004 (ip), vehicle: saline with Tween-80",130 % of control
same,T/C,"dose: 2.4 mg/kg/injection, schedule: Q04DX003 (ip), vehicle: water","100, 104, 106 (2×), 107, 115 % of control"
same,T/C,"dose: 2.88 mg/kg/injection, schedule: Q04DX003 (ip), vehicle: saline","107, 108 (2×), 113, 122, 123, 125, 132 % of control (2×)"
same,T/C,"dose: 3.4 mg/kg/injection, schedule: Q04DX003 (ip), vehicle: water",134 % of control
same,survivor count,"dose: 3.6 mg/kg/injection, schedule: Q01DX004 (ip), vehicle: saline with Tween-80",8 of 8
same,T/C,[1],"91, 100, 103, 111, 116, 120, 125 % of control"
same,T/C,"dose: 4.8 mg/kg/injection, schedule: Q04DX003 (ip), vehicle: saline","98, 103, 105, 107, 110, 115, 120, 120 [7 of 8 alive], 142 % of control"
same,survivor count,"dose: 6.0 mg/kg/injection, schedule: Q01DX004 (ip), vehicle: saline with Tween-80",8 of 8
same,T/C,"dose: 6.0 mg/kg/injection, schedule: Q04DX003 (ip), vehicle: saline",126 % of control
same,T/C,"dose: 6.67 mg/kg/injection, schedule: Q04DX003 (ip), vehicle: water","88, 91, 95, 97, 109, 112 % of control"
same,T/C,[2],86 and 109 % of control
same,survivor count,[2],8 of 8
same,survivor count,"dose: 8.0 mg/kg/injection, schedule: Q04DX003 (ip), vehicle: water",8 of 8
same,survivor count,"dose: 13.33 mg/kg/injection, schedule: Q04DX003 (ip), vehicle: saline",8 of 8
CCC1(O)CC(OC2CC(N(C)C)C(OC3CC4OC5CC(=O)C(C)OC5OC4C(C)O3)C(C)O2)c2c(cc3c(c2O)C(=O)c2c(O)ccc(O)c2C3=O)C1C(=O)OC (configuration not stated),T/C,"dose: 2.16 mg/kg/injection, schedule: Q04DX003 (ip), vehicle: water",140 % of control
same,survivor count,[3],8 of 8
same,survivor count,[1],5 of 8
same,survivor count,[4],4 of 8
CSCS(=O)C[C@H](CO)NC(=O)/C=C/c1c(C)[nH]c(=O)[nH]c1=O (some centres not stated),survivor count,"dose: 3.33 mg/kg/injection, schedule: Q04DX003 (ip), vehicle: saline",7 of 8
same,survivor count,"dose: 4.0 mg/kg/injection, schedule: Q04DX003 (ip), vehicle: saline",4 of 8
same,survivor count,"dose: 800.0 micrograms/kg/injection, schedule: Q01DX009 (ip), vehicle: saline",8 of 8
CC[C@@]1(O)C[C@H](OC2CC(N(C)C)C(OC3CC(O)C(OC4CC(O)C(O)C(C)O4)C(C)O3)C(C)O2)c2c(cc3c(c2O)C(=O)c2c(O)ccc(O)c2C3=O)[C@H]1C(=O)OC (some centres not stated),survivor count,"dose: 5.0 mg/kg/injection, schedule: Q04DX003 (ip), vehicle: water",6 of 8
O=c1[nH]cc(F)c(=O)[nH]1,survivor count,"dose: 100.0 mg/kg/injection, schedule: Q04DX003 (ip), vehicle: saline",8 of 8
CC(=O)[C@]1(O)Cc2c(O)c3c(c(O)c2[C@@H](OC2CC(N)C(O)C(C)O2)C1)C(=O)c1c(O)cccc1C3=O (some centres not stated),survivor count,"dose: 0.9 mg/kg/injection, schedule: Q04DX003 (ip), vehicle: water",8 of 8
same,survivor count,"dose: 1.08 mg/kg/injection, schedule: Q04DX003 (ip), vehicle: water",8 of 8
same,survivor count,"dose: 1.5 mg/kg/injection, schedule: Q04DX003 (ip), vehicle: water",8 of 8
same,survivor count,"dose: 1.8 mg/kg/injection, schedule: Q04DX003 (ip), vehicle: water",8 of 8
COc1cc2c[n+](C)c3c4cc5c(cc4ccc3c2cc1OC)OCO5,T/C,"dose: 133.3 mg/kg/injection, schedule: Q04DX003 (ip), vehicle: Klucel (hydroxypropylcellulose) (HPC)",125 % of control
same,survivor count,"dose: 167.0 mg/kg/injection, schedule: Q04DX003 (ip), vehicle: other",8 of 8
same,survivor count,"dose: 320.0 mg/kg/injection, schedule: Q04DX003 (ip), vehicle: other",7 of 8
CO[C@H]1Nc2c(ccc(C)c2O)C(=O)N2C=C(/C=C/C(N)=O)C[C@@H]12,T/C,"dose: 151.0 micrograms/kg/injection, schedule: Q04DX003 (ip), vehicle: saline + alcohol",141 % of control
same,survivor count,"dose: 700.0 micrograms/kg/injection, schedule: Q04DX003 (ip), vehicle: saline + alcohol",8 of 8
same,survivor count,"dose: 1000.0 micrograms/kg/injection, schedule: Q04DX003 (ip), vehicle: saline + alcohol",3 of 8
COc1ccc(CC2C(=O)NC(C)C(=O)N(C)C3C(=O)N(C)C(Cc4ccc(O)c(c4)Oc4ccc(cc4)C3O)C(=O)NC(C)C(=O)NC(C)C(=O)N2C)cc1 (configuration not stated),survivor count,"dose: 4.32 mg/kg/injection, schedule: Q04DX003 (ip), vehicle: other",7 of 8
same,survivor count,"dose: 7.2 mg/kg/injection, schedule: Q04DX003 (ip), vehicle: other",2 of 8
same,survivor count,"dose: 12.0 mg/kg/injection, schedule: Q04DX003 (ip), vehicle: other",0 of 8
same,survivor count,"dose: 20.0 mg/kg/injection, schedule: Q04DX003 (ip), vehicle: other",0 of 8
COC(=O)[C@@H]1c2cc3c(c(O)c2[C@@H](OC2OC(C)C(OC)C(C)(OC)C2OC)C[C@]1(C)O)C(=O)c1c(O)cc2c(c1C3=O)O[C@H]1O[C@]2(C)[C@H](O)[C@@H](N(C)C)[C@@H]1O (some centres not stated),survivor count,"dose: 3.0 mg/kg/injection, schedule: Q04DX003 (ip), vehicle: water",8 of 8
same,survivor count,[3],7 of 7
same,survivor count,[4],7 of 8
O=C[C@@H](CO)O[C@H](C=O)n1cnc2c(=O)[nH]cnc21,T/C,"dose: 108.0 mg/kg/injection, schedule: Q04DX003 (ip), vehicle: water",140 % of control
same,survivor count,"dose: 500.0 mg/kg/injection, schedule: Q04DX003 (ip), vehicle: water",0 of 8
CC[C@](O)(C(=O)O)c1cc2n(c(=O)c1CO)Cc1cc3ccccc3nc1-2,survivor count,"dose: 83.3 mg/kg/injection, schedule: Q04DX003 (ip), vehicle: saline",6 of 8
O=CC(NC(=O)N(CCCl)N=O)C(O)C(O)C(O)CO (configuration not stated),survivor count,"dose: 30.0 mg/kg/injection, schedule: Q04DX003 (ip), vehicle: saline",8 of 8
CC(C)CCCCCCCCCCCCC(=O)NCC(=O)NC1C(C)OC(Nc2ncnc3nc[nH]c23)C(O)C1O (configuration not stated),T/C,"dose: 432.0 micrograms/kg/injection, schedule: Q04DX003 (ip), vehicle: saline",128 % of control
same,T/C,"dose: 720.0 micrograms/kg/injection, schedule: Q04DX003 (ip), vehicle: saline",137 % of control [7 of 8 alive]
same,T/C,"dose: 1200.0 micrograms/kg/injection, schedule: Q04DX003 (ip), vehicle: saline",129 % of control [7 of 8 alive]
same,T/C,"dose: 2000.0 micrograms/kg/injection, schedule: Q04DX003 (ip), vehicle: saline",149 % of control
